Results are given in words; binding and its absence hold for the method and conditions named. For some of these results: Binding seen in cells or lysates may run through a third protein. Some binding calls cover weakened binding; strength is not graded here. For some of these results: Sequences can lack the tags named with a protein.

Sequences of proteins named here, by UniProt entry; tags and fusion partners are left off. A change or cut given only in a name is not applied to a line headed by its entry.
UniProt P03372: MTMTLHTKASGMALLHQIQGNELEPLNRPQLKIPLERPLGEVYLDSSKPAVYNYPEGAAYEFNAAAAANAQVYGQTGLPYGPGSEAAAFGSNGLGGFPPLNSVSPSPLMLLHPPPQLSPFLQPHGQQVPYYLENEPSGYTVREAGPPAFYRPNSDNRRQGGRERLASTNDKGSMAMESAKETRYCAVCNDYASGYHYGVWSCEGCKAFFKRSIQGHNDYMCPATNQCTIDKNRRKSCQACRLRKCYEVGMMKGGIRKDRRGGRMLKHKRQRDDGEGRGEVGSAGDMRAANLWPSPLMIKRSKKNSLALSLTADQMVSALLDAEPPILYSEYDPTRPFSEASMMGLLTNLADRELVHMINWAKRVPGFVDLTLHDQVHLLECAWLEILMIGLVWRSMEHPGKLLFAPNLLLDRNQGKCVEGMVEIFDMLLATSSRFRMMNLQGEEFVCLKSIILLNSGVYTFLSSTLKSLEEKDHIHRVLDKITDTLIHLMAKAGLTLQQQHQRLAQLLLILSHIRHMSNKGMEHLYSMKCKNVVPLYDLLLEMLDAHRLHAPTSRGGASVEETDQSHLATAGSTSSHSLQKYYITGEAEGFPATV

Assay [1] concerns the target T1, S. pombe SPF30 Tudor domain (on the CADOR array) (S. pombe) (UniProt O94519).
T1 sequence: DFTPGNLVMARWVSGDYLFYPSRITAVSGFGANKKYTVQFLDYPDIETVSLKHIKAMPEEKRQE
Nature of the assay: peptide or protein array; CADOR 5.0 chromatin-associated domain array (over 300 reader domains spotted) probed with biotinylated ERα peptides (aa 227-244, K235me2 or unmodified); both purified.

For another assay, the target named is T2, Flag-PHF20 (human) (UniProt Q9BVI0).
T2 sequence: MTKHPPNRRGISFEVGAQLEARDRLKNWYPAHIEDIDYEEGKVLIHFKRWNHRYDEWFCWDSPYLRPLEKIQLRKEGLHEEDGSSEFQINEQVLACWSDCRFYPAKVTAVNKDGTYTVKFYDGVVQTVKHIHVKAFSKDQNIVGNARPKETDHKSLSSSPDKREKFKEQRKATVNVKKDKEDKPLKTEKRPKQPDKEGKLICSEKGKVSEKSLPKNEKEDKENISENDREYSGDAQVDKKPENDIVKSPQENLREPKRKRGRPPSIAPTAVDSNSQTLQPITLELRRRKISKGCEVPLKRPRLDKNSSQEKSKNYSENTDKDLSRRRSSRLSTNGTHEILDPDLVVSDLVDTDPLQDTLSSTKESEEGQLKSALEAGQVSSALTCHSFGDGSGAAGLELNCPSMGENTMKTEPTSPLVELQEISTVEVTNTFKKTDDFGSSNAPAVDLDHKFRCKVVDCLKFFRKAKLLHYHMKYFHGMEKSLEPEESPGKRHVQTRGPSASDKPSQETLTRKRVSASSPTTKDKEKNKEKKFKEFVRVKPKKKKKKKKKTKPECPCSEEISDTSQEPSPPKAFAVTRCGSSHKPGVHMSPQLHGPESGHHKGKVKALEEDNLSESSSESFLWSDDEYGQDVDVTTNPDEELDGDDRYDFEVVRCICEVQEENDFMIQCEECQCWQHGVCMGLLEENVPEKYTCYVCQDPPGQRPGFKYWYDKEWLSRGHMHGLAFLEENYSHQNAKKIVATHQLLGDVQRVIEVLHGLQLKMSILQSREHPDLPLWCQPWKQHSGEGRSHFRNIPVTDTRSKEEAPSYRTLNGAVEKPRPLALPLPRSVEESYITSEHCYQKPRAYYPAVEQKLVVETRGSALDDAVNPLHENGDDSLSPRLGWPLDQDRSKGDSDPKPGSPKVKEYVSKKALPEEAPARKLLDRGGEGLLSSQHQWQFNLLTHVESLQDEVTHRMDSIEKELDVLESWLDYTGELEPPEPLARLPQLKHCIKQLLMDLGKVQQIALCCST
Nature of the assay: co-IP; HEK-293T cells co-transfected with Flag- and Myc-tagged proteins; anti-FLAG M2 agarose IP, western blot; lysis in 50 mM Tris-HCl pH 7.4, 250 mM NaCl, 0.5% Triton X-100, 10% glycerol, 1 mM DTT; also with G9a co-expression or BIX-01294 for 24 h. Background: In western blotting, separated proteins are transferred to a membrane and probed.

For assay [2], the target named is Flag-ERαK235R mutant (human) (UniProt P03372). The description is as above.
The target in the next assay is Flag-ERα (human) (UniProt P03372). The description is as above.

As for “ERα peptide (aa 227–244) bearing dimethylated K235 (from UniProt P03372 227-244)”, in assay [1], the binding result was “binds”.
For “Myc-ERα (from UniProt P03372 1-595) (receptor)”, in the assay with Flag-PHF20 (human), the binding result was “binds”.

B1: Myc-PHF20 (protein, UniProt Q9BVI0 1-1012)
chain: T2 sequence
Take B1: the binding result (in assay [2]; with Flag-ERα (human)) was “binds” throughout.
